Assay [1] has as its target T1, SFB-ZEB1, triple-epitope (S-protein, FLAG tag, and streptavidin-binding peptide)-tagged zinc finger E-box-binding homeobox 1 (UniProt P37275).
T1 sequence: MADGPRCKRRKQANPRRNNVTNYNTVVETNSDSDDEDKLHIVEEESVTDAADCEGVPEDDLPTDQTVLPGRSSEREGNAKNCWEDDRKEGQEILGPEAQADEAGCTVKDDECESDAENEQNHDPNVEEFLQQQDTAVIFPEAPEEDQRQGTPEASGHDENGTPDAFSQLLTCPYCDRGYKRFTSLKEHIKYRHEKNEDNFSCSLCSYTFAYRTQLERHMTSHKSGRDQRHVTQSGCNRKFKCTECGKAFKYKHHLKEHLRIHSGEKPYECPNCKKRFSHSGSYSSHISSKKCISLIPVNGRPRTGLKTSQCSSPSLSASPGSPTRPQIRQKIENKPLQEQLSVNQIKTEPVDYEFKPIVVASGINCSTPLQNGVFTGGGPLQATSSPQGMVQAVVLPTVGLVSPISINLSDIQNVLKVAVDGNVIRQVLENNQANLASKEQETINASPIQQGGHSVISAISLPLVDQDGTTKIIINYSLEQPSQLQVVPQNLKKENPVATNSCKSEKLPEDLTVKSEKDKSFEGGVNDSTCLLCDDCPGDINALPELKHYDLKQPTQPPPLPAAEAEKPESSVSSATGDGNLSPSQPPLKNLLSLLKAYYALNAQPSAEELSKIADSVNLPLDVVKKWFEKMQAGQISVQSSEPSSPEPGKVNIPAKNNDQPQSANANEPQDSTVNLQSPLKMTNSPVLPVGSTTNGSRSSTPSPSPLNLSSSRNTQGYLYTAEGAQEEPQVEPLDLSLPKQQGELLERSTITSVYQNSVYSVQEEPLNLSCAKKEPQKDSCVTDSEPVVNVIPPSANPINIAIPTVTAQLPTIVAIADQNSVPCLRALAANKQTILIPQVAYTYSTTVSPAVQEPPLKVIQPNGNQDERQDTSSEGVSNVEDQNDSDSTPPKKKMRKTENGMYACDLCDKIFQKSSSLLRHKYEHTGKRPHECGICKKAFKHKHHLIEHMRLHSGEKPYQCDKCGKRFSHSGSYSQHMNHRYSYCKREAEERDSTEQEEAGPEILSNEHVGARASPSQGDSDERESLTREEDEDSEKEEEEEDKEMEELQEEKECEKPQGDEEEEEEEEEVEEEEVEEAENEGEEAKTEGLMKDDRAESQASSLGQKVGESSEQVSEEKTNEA
Put plainly: co-IP; HEK293T co-transfected; lysis in NETN buffer (100 mM NaCl, 1 mM EDTA, 20 mM Tris-HCl pH 8.0, 0.5% Nonidet P-40); SFB-tagged protein pulled down on streptavidin-Sepharose beads, 4 °C, 2 h; immunoblot.

The target in assay [2] is T2, MYC-CHFR, full-length checkpoint with forkhead and ring finger domains (human) (UniProt Q96EP1).
T2 sequence: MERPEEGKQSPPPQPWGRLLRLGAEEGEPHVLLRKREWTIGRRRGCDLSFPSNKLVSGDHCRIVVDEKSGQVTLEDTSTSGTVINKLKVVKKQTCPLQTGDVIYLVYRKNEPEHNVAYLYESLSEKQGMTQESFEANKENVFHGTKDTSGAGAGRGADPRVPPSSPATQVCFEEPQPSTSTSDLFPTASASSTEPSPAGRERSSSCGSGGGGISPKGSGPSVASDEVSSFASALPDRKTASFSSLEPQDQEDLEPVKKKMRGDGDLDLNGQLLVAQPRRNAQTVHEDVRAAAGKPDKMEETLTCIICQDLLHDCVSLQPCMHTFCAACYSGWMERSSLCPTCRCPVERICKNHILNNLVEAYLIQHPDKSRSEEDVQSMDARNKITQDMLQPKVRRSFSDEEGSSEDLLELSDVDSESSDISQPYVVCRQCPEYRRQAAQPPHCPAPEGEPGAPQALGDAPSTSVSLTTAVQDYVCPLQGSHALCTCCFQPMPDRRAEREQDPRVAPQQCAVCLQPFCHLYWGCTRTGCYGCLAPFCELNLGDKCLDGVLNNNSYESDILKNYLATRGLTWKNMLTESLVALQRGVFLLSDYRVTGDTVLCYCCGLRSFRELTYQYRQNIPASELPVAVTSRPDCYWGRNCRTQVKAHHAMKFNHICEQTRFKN
Put plainly: co-IP; HEK293T co-transfected; lysis in NETN buffer (100 mM NaCl, 1 mM EDTA, 20 mM Tris-HCl pH 8.0, 0.5% Nonidet P-40); MYC-tagged protein precipitated on anti-Myc magnetic beads, 4 °C, 2 h; immunoblot.

Drawing on article PMC8405615, this text covers binding for two molecules.

Results are given in words; binding and its absence hold for the method and conditions named. Binding seen in cells or lysates may run through a third protein. Some binding calls cover weakened binding; strength is not graded here. Where a sequence is shown, tags or fusion partners need not be part of it.

B1: MYC-CHFR, full-length checkpoint with forkhead and ring finger domains (enzyme, UniProt Q96EP1 1-664)
chain: T2 sequence
Turning to B1, the binding result in assay [1] is on record as “binds”.

B2: SFB-ZEB1, triple-epitope (S-protein, FLAG tag, and streptavidin-binding peptide)-tagged zinc finger E-box-binding homeobox 1 (protein, UniProt P37275 1-1124)
chain: T1 sequence
On to B2, for which the binding entry in assay [2] was “binds”.
